Data from patent US20070172957A1, “Methods of identifying anti-inflammatory macrolides” (TAISHO PHARMACEUTICAL CO., LTD., priority 2004, published 2007).

Tested on: A549 cells
Test: A549 microarray comparing macrolides with arachidonic acid pathway inhibitors, with IL-1β stimulation (Appendix C, Tables 6-9), and correlation analysis
Type: cell-based
Conditions: for Correlation coefficient of transcriptional response with FMA response / Correlation coefficient of transcriptional response with Josa response / Correlation coefficient of transcriptional response with Roxi response / Correlation coefficient of transcriptional response with Dexamethasone response / Correlation coefficient of transcriptional response with Indomethacin response / Correlation coefficient of transcriptional response with Triacsin C response / Correlation coefficient of transcriptional response with Clari response: A549 + IL-1β; for Correlation coefficient of transcriptional response with FMA response / Correlation coefficient of transcriptional response with Josa response / Correlation coefficient of transcriptional response with Roxi response / Correlation coefficient of transcriptional response with Dexamethasone response / Correlation coefficient of transcriptional response with Indomethacin response / Correlation coefficient of transcriptional response with Triacsin C response / Correlation coefficient of transcriptional response with IL-1β response / Correlation coefficient of transcriptional response with Clari response: all spots; for Correlation coefficient of transcriptional response with Dexamethasone response / Correlation coefficient of transcriptional response with Indomethacin response / Correlation coefficient of transcriptional response with Triacsin C response / Correlation coefficient of transcriptional response with IL-1β response: cosine vector angle; for Correlation coefficient of transcriptional response with IL-1β response: A549
Source text: One inhibitor, triacsin C, acts on AA biosynthesis by inhibiting arachidonyl CoA synthetases, blocking the incorporation of free AA into phospholipids. Triacsin C is reasonably specific for AA compared to other fatty acids. However, triacsin C structurally resembles AA so it also may interfere with other steps in the AA pathway. Indomethacin is an inhibitor of COX1 and COX2 enzyme activities and therefore specifically blocks metabolism of AA into prostaglandins. […] It inhibits transcription of PLA2, and transcriptionally and post-transcriptionally regulates COX1 and COX2 activities. Dexamethasone has additional effects unrelated to AA through binding with the glucocorticoid receptor to glucocortcoid response elements.
A549 cells were pre-incubated overnight (17 hours) with macrolides (10 μM FMA-9045, 50 μM clarithromycin, 50 μM roxithromycin, 50 μM josamycin) and 15 μM triacsin C, and pre-incubated 2 hours with 100 nM indomethacin and 100 nM dexamethasone. All cells then were stimulated for 4 hours with IL-1β, because the activation of PLA2 and downstream signaling events generally requires an inflammatory stimulus. The various treatment conditions are shown below in Table 4. Following macrolide and inhibitor pre-treatment and IL-1 stimulation, the cells were lysed, total RNA was collected, and the poly-A+ mRNA fraction was purified. The resulting microarray data (Appendix C) were analyzed using the methods described in the Examples above.
The tables in Appendix C represent the effects of the arachidonic acid pathway inhibitors (“AA pathway inhibitors”) and the effects of the macrolides (“IL1+macrolide effects”). […] In both tables in Appendix C, the genes that meet this criterion (≧1.3 min fold change) are indicated in bold.
Quantitative analysis was done to determine how well the responses to the different AA pathway inhibitors correlated. The correlation values were assigned a p-value to provide statistical confidence to the correlation value. Correlation between experiments, across all spots showing good detection, was assessed by cosine vector angle to generate the data shown in Tables 7-9. A correlation coefficient close to one indicates strong correlation, whereas a value near zero indicates no correlation. P-values for each correlation coefficient were estimated based on a Fisher permutation test. In this test, each spot's expression ratios were randomly re-ordered across experiments and the degree of correlation between experiments was then reassessed. This was done repeatedly.

[1] = subset of genes differentially expressed in response to clarithromycin

Row | Compound | Correlation coefficient of transcriptional response with FMA response | Correlation coefficient of transcriptional response with Josa response | Correlation coefficient of transcriptional response with Roxi response | Correlation coefficient of transcriptional response with Dexamethasone response | Correlation coefficient of transcriptional response with Indomethacin response | Correlation coefficient of transcriptional response with Triacsin C response | Correlation coefficient of transcriptional response with IL-1β response | Correlation coefficient with dexamethasone response [1] | Correlation coefficient with indomethacin response [1] | Correlation coefficient with triacsin C response [1] | Correlation coefficient with triacsin C response (subset of genes differentially expressed in response to triacsin C) | Correlation coefficient of transcriptional response with Clari response
1 | CC[C@H]1OC(=O)[C@H](C)[C@@H](O[C@H]2C[C@@](C)(OC)[C@@H](O)[C@H](C)O2)[C@H](C)[C@@H](O[C@@H]2O[C@H](C)C[C@H](N(C)C)[C@H]2O)[C@](C)(OC)C[C@@H](C)C(=O)[C@H](C)[C@@H](O)[C@]1(C)O [clarithromycin] | 0.430 | 0.601 | 0.683 | 0.162 | 0.553 | 0.607 | −0.059 | 0.430 | 0.848 | 0.916 |  | 
2 | COc1ccc2c(c1)c(CC(=O)O)c(C)n2C(=O)c1ccc(Cl)cc1 [indomethacin] |  |  |  | 0.266 |  | 0.485 | −0.195 |  |  |  | 0.621 | 
3 | CO[C@@H]1[C@@H](O[C@@H]2O[C@H](C)[C@@H](O[C@H]3C[C@@](C)(O)[C@@H](OC(=O)CC(C)C)[C@H](C)O3)[C@H](N(C)C)[C@H]2O)[C@@H](CC=O)C[C@@H](C)[C@@H](O)/C=C/C=C/C[C@@H](C)OC(=O)C[C@H]1OC(C)=O [josamycin] | 0.660 |  | 0.721 |  |  |  | 0.060 |  |  |  |  | 0.601
4 | CC[C@H]1OC(=O)[C@H](C)[C@@H](O[C@H]2C[C@@](C)(OC)[C@@H](O)[C@H](C)O2)[C@H](C)[C@@H](O[C@@H]2O[C@H](C)C[C@H](N(C)C)[C@H]2O)[C@](C)(O)C[C@@H](C)/C(=N\OCOCCOC)[C@H](C)[C@@H](O)[C@]1(C)O [roxithromycin] | 0.658 | 0.721 |  | 0.188 | 0.639 | 0.681 | −0.049 |  |  |  |  | 0.683
5 | CCC/C=C/C/C=C/C=C/C=N/NN=O [triacsin C] |  |  |  | 0.196 | 0.485 |  | −0.035 |  |  |  |  | 
